Protein sequences, listed by entry. Tags and fused reporters are not part of them. Lines headed by an entry give the natural chain unless they say otherwise; changes in a name come on top.
UniProt Q9R0U0: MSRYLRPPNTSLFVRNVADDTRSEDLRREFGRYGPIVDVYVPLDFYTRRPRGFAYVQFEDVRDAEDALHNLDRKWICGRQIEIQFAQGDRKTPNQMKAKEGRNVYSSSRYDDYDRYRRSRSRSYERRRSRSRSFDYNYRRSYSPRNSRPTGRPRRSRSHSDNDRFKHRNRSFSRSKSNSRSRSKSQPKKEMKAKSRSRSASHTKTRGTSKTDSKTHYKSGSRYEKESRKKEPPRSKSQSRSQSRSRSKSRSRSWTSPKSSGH
UniProt O94913: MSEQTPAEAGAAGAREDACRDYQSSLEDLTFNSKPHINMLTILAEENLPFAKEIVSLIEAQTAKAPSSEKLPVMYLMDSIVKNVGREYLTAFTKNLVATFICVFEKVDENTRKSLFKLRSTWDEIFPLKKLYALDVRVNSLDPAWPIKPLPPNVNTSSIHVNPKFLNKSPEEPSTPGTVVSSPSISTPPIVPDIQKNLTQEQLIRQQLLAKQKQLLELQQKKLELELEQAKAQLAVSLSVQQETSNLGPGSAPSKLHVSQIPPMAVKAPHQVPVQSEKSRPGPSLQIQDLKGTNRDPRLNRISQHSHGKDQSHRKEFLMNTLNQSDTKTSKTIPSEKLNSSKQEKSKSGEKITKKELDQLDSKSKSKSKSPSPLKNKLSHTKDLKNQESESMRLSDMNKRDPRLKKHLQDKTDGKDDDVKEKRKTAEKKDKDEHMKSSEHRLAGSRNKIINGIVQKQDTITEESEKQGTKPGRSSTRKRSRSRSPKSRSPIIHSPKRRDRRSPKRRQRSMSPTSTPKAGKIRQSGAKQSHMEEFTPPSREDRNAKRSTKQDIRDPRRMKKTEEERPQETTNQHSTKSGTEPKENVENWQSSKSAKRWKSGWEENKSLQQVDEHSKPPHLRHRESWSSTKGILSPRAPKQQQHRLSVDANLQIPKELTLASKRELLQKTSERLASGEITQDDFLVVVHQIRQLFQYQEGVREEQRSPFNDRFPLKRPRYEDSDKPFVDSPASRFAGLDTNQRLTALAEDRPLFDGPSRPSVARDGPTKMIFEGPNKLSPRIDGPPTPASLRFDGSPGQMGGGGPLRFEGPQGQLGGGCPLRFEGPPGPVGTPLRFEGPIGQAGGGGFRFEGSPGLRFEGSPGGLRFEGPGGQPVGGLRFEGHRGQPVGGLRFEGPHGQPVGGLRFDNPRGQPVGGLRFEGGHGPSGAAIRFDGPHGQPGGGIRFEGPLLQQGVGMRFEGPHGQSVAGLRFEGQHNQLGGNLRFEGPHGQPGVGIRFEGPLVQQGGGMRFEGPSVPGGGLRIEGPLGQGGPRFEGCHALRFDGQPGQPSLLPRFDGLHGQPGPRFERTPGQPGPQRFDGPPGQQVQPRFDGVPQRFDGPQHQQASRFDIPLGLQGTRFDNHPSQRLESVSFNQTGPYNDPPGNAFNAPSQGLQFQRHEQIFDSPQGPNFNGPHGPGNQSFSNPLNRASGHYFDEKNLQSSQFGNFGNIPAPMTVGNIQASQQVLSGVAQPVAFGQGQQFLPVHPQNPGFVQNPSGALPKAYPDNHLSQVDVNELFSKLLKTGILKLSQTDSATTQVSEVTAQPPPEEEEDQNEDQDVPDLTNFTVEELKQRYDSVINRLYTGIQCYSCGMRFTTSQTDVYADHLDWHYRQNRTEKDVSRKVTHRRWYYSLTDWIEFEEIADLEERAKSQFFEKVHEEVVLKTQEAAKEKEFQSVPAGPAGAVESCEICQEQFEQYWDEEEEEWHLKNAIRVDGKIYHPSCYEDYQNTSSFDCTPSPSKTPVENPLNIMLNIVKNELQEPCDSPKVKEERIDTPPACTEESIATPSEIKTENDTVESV
UniProt Q69YN4: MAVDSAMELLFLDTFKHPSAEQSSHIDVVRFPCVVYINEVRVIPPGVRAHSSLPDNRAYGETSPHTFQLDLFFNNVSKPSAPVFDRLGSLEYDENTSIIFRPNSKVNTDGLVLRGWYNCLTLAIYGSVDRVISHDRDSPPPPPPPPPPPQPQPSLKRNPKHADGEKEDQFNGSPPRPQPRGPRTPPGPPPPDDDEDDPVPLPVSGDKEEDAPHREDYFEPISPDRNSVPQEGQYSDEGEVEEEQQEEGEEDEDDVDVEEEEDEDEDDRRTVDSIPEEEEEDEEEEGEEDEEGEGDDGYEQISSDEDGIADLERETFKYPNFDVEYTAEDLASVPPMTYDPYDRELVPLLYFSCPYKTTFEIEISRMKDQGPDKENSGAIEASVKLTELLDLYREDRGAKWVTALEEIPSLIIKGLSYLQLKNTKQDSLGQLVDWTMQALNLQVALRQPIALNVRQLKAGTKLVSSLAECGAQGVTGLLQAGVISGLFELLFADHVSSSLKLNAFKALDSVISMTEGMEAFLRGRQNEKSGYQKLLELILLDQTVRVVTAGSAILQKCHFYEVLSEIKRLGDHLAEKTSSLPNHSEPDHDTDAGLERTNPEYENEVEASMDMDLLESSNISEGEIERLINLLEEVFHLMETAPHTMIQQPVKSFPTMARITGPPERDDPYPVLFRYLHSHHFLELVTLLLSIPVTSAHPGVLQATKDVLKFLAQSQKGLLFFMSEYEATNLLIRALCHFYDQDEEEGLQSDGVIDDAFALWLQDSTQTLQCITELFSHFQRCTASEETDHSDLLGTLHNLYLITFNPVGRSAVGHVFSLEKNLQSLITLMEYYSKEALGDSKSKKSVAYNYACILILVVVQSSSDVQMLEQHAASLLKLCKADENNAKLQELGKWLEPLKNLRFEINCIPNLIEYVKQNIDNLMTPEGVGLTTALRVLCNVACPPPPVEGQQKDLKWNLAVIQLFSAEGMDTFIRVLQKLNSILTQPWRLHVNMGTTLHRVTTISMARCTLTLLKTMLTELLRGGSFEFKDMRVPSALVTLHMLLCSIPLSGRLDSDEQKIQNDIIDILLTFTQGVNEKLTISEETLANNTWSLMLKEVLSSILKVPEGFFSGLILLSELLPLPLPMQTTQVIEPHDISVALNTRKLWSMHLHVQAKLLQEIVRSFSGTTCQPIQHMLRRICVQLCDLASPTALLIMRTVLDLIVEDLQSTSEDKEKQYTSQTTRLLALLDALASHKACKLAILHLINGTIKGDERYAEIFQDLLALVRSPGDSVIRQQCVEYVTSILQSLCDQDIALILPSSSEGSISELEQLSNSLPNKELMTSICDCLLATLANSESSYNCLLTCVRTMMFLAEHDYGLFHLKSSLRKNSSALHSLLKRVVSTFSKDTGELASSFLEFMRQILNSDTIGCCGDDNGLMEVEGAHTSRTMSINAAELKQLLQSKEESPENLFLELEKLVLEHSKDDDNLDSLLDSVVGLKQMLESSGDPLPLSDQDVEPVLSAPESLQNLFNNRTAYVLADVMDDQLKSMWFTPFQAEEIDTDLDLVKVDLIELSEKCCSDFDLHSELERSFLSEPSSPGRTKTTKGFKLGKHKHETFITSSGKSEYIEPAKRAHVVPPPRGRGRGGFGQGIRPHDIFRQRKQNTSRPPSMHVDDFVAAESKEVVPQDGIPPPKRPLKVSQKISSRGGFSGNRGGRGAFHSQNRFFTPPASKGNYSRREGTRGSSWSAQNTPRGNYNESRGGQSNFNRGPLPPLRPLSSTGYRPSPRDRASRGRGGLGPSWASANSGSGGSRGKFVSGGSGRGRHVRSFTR
UniProt Q16630: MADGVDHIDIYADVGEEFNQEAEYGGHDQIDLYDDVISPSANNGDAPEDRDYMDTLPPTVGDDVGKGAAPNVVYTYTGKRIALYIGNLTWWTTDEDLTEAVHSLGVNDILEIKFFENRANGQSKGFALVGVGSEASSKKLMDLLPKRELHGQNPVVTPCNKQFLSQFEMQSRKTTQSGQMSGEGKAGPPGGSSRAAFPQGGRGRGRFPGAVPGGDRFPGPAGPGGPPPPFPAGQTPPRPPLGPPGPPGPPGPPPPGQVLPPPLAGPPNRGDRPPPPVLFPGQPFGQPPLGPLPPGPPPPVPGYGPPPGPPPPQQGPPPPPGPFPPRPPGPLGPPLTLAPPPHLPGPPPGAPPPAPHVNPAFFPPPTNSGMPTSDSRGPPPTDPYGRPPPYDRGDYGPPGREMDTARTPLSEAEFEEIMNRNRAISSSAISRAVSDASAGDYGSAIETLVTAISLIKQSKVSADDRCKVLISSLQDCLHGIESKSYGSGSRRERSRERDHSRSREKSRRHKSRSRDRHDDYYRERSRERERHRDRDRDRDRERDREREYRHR

In PMC8989518:

B1: FIP1L1, member of the cleavage and polyadenylation specificity factor complex (protein, UniProt Q6UN15 1-594)
chain: MSAGEVERLVSELSGGTGGDEEEEWLYGGPWDVHVHSDLAKDLDENEVERPEEENASANPPSGIEDETAENGVPKPKVTETEDDSDSDSDDDEDDVHVTIGDIKTGAPQYGSYGTAPVNLNIKTGGRVYGTTGTKVKGVDLDAPGSINGVPLLEVDLDSFEDKPWRKPGADLSDYFNYGFNEDTWKAYCEKQKRIRMGLEVIPVTSTTNKITAEDCTMEVTPGAEIQDGRFNLFKVQQGRTGNSEKETALPSTKAEFTSPPSLFKTGLPPSRNSTSSQSQTSTASRKANSSVGKWQDRYGRAESPDLRRLPGAIDVIGQTITISRVEGRRRANENSNIQVLSERSATEVDNNFSKPPPFFPPGAPPTHLPPPPFLPPPPTVSTAPPLIPPPGFPPPPGAPPPSLIPTIESGHSSGYDSRSARAFPYGNVAFPHLPGSAPSWPSLVDTSKQWDYYARREKDRDRERDRDRERDRDRDRERERTRERERERDHSPTPSVFNSDEERYRYREYAERGYERHRASREKEERHRERRHREKEETRHKSSRSNSRRRHESEEGDSHRRHKHKKSKRSKEGKEAGSEPAPEQESTEATPAE
B2: CPSF7, member of the cleavage and polyadenylation specificity factor complex (protein, UniProt Q8N684 1-471)
chain: MSEGVDLIDIYADEEFNQDPEFNNTDQIDLYDDVLTATSQPSDDRSSSTEPPPPVRQEPSPKPNNKTPAILYTYSGLRNRRAAVYVGSFSWWTTDQQLIQVIRSIGVYDVVELKFAENRANGQSKGYAEVVVASENSVHKLLELLPGKVLNGEKVDVRPATRQNLSQFEAQARKRECVRVPRGGIPPRAHSRDSSDSADGRATPSENLVPSSARVDKPPSVLPYFNRPPSALPLMGLPPPPIPPPPPLSSSFGVPPPPPGIHYQHLMPPPPRLPPHLAVPPPGAIPPALHLNPAFFPPPNATVGPPPDTYMKASAPYNHHGSRDSGPPPSTVSEAEFEDIMKRNRAISSSAISKAVSGASAGDYSDAIETLLTAIAVIKQSRVANDERCRVLISSLKDCLHGIEAKSYSVGASGSSSRKRHRSRERSPSRSRESSRRHRDLLHNEDRHDDYFQERNREHERHRDRERDRHH
B3: CPSF2, member of the cleavage and polyadenylation specificity factor complex (protein, UniProt Q9P2I0 1-782)
chain: MTSIIKLTTLSGVQEESALCYLLQVDEFRFLLDCGWDEHFSMDIIDSLRKHVHQIDAVLLSHPDPLHLGALPYAVGKLGLNCAIYATIPVYKMGQMFMYDLYQSRHNTEDFTLFTLDDVDAAFDKIQQLKFSQIVNLKGKGHGLSITPLPAGHMIGGTIWKIVKDGEEEIVYAVDFNHKREIHLNGCSLEMLSRPSLLITDSFNATYVQPRRKQRDEQLLTNVLETLRGDGNVLIAVDTAGRVLELAQLLDQIWRTKDAGLGVYSLALLNNVSYNVVEFSKSQVEWMSDKLMRCFEDKRNNPFQFRHLSLCHGLSDLARVPSPKVVLASQPDLECGFSRDLFIQWCQDPKNSIILTYRTTPGTLARFLIDNPSEKITEIELRKRVKLEGKELEEYLEKEKLKKEAAKKLEQSKEADIDSSDESDIEEDIDQPSAHKTKHDLMMKGEGSRKGSFFKQAKKSYPMFPAPEERIKWDEYGEIIKPEDFLVPELQATEEEKSKLESGLTNGDEPMDQDLSDVPTKCISTTESIEIKARVTYIDYEGRSDGDSIKKIINQMKPRQLIIVHGPPEASQDLAECCRAFGGKDIKVYMPKLHETVDATSETHIYQVRLKDSLVSSLQFCKAKDAELAWIDGVLDMRVSKVDTGVILEEGELKDDGEDSEMQVEAPSDSSVIAQQKAMKSLFGDDEKETGEESEIIPTLEPLPPHEVPGHQSVFMNEPRLSDFKQVLLREGIQAEFVGGVLVCNNQVAVRRTETGRIGLEGCLCQDFYRIRDLLYEQYAIV

target: Serine and Arginine Rich Splicing Factor 10 (SRSF10) fused to a promiscuous biotin ligase (BirA) (mouse) (UniProt Q9R0U0); assay: proximity labelling; BioID: SRSF10-BirA or free BirA transfected into HeLa cells, 50 uM biotin overnight; biotinylated proteins captured on streptavidin dynabeads, on-bead digestion, LC-MS/MS; hits shortlisted against free BirA

binding, binds:
cleavage and polyadenylation factor subunit PCF11 (from UniProt O94913 1-1555)
M6A methyltransferase VIRMA (from UniProt Q69YN4 1-1812)
CPSF6, member of the cleavage and polyadenylation specificity factor complex (from UniProt Q16630 1-551)
B1
B2
B3

These are yes or no findings as the source states them, for the method shown. Binding seen in cells or lysates may run through a third protein. These calls come from enrichment with a bait or labelling near it, and not all partners need be listed.
